# According to PubChem BioAssay AID445 (National Center for Advancing Translational Sciences (NCATS), 2006):
# This is one part of the list. Further columns of the screen follow, without active or inactive calls. Most of these compounds were active or inconclusive in the main read-out, so they are no random draw. Potencies come from curve fits of mixed quality, noted in brackets.
# Test: IkB Signaling
# Settings: ABC-DLBCL IkBa-CBG/CBR dual luciferase ratio (green luciferase fused to IkBa over red control in OCI-Ly3 lymphoma cells), 4 h
# Outline: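 Luminescence ratio of IκBα-fused green versus native red beetle luciferase in OCI-Ly3 cells, 4 h post-doxycycline with compound; red signal alone, scaled from basal (0%) to zero light (-100%), flagged nonspecific or cytotoxic effects.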
# [1] = measured here: control luc red channel unless noted
# [2] = measured here: IkB-luc green channel
# [3] = measured here: control luc red channel
smiles,measurement,setting,value
Cc1ccc(NC(=O)N2CCC(c3nc4c(nnn4Cc4cccc(Cl)c4)c(=O)[nH]3)CC2)cc1,AC50,[1],"25.1 µM [falling, single point]"
CCOC(=O)c1c(Nc2ccc(C)cc2)nnc(-c2ccccc2)c1-c1ccccc1,AC50,[1],"7.94 µM [falling, full curve]"
COc1ccc(NCc2cc3cc4c(cc3n(CC(=O)Nc3ccc(F)cc3F)c2=O)OCO4)cc1,AC50,[1],"12.6 µM [falling, partial curve, poor fit]"
COc1ccc2c(C)c(CCC(=O)NCCc3ccccc3OC)c(=O)oc2c1,AC50,[1],"31.6 µM [falling, single point]"
CCc1ccccc1NS(=O)(=O)c1ccc(OC)c2ncccc12,AC50,[1],"7.94 µM [falling, partial curve]"
CCC1CCCCN1C(=O)c1ccc2c(c1)N(Cc1cccc(Cl)c1)C(=O)c1ccccc1S2(=O)=O (configuration not stated),AC50,[1],"20 µM [falling, partial curve]"
O=C(CN(Cc1ccc2c(c1)OCO2)C(=O)CSc1nc2ccccc2o1)NC1CCCCC1,AC50,[1],"25.1 µM [falling, partial curve]"
COC(=O)CCSc1nc2sc3c(c2c(=O)n1Cc1ccccc1)CCC(C(C)(C)C)C3 (configuration not stated),AC50,[1],"12.6 µM [falling, partial curve]"
CCOc1cc(C2C(C(=O)OC)=C(C)NC3=C2C(=O)c2ccccc23)cc(Cl)c1O (configuration not stated),AC50,[1],"25.1 µM [falling, partial curve]"
Cc1ccc(-n2ncc3c(NCCCN4CCOCC4)ncnc32)cc1,AC50,[1],"7.94 µM [falling, full curve]"
COC(=O)CSc1nnc(SCc2ccccc2)s1,AC50,[1],"6.31 µM [falling, full curve]"
CCn1c2ccccc2c2nnc(N3CCN(c4cc(C)ccc4C)CC3)nc21,AC50,[1],"20 µM [falling, partial curve]"
COc1ccc(NC(=O)CN(Cc2ccccc2)S(=O)(=O)c2ccc(C)cc2)cc1Cl,AC50,[1],"25.1 µM [falling, partial curve]"
CCOc1ccccc1NC(=O)c1cc2c(Cl)nc3ccccc3c2s1,AC50,[1],"0.126 µM [falling, full curve]"
CCOC(=O)c1c(OCC)[nH]c2c1cc(O)c1ccccc12,AC50,[1],"10 µM [falling, partial curve]"
CCC(C)N(CCNC(=O)CC1Oc2ccccc2NC1=O)C1CCCCC1 (configuration not stated),AC50,[1],"12.6 µM [falling, partial curve]"
CCOC(=O)c1c(N)n(-c2cccc(OC)c2)c2nc3ccccc3nc12,AC50,[1],"12.6 µM [rising, partial curve]"
Cc1ccc(C)n1-c1c(C(=O)NCCC(C)C)sc2ncccc12,AC50,[1],"25.1 µM [falling, single point]"
Cc1oc2ncn(CC(C)C)c(=O)c2c1C(=O)N1CCN(c2cccc(C(F)(F)F)c2)CC1,AC50,[1],"20 µM [falling, single point]"
CCOC(=O)C1CCN(C(=O)Cn2c(=O)cc(C)c3c(C)nn(C)c32)CC1,AC50,[1],"25.1 µM [falling, partial curve]"
COc1ccc(-c2cc(C(=O)N(C)Cc3ccccc3)no2)cc1OC,AC50,[1],"1.26 µM [falling, full curve]"
COc1cc(-c2nc3nc[nH]n3c2Nc2ccc(C(C)C)cc2)ccc1O,AC50,[2],"3.16 µM [rising, partial curve]"
same,AC50,[3],"39.8 µM [falling, single point]"
Cc1cccc(-n2ncc3c(Nc4ccc(Oc5ccc(Cl)cc5)cc4)ncnc32)c1,AC50,[1],"39.8 µM [falling, partial curve]"
Cc1ccn2c(Nc3ccccc3C)c(-c3ccccn3)nc2c1,AC50,[1],"25.1 µM [falling, partial curve]"
COc1cc(C(=O)Nc2nc3nc(-c4ccccc4)cc(=O)n3[nH]2)cc(OC)c1OC,AC50,[1],"25.1 µM [falling, single point]"
O=C(c1n[nH]c(=O)c2ccccc12)N1CCN(C2c3ccccc3-c3ccccc32)CC1,AC50,[1],"12.6 µM [falling, partial curve]"
CCOC(=O)c1ccccc1NC(=O)CCOc1ccccc1,AC50,[1],"20 µM [falling, single point]"
Cc1cccc(N2CCN(C(=O)NCc3noc4ccccc34)CC2)c1C,AC50,[1],"15.8 µM [falling, single point]"
CN(c1ccccc1)c1nc(N2CCCC2)nc(-n2ccnc2)n1,AC50,[1],"25.1 µM [falling, single point]"
COc1ccccc1CNC(=O)C(=O)NCC(c1ccco1)S(=O)(=O)c1cccs1 (configuration not stated),AC50,[1],"5.01 µM [falling, single point]"
CCc1ccc(CCC(=O)Nc2sc3c(c2C#N)CCCC3)o1,AC50,[2],"3.16 µM [rising, single point]"
same,AC50,[3],"39.8 µM [falling, single point]"
OCCCc1nc2ccccc2n1CCCCOc1ccccc1,AC50,[1],"3.16 µM [rising, partial curve]"
CCn1c(=O)n(CC)c2cc(N3CCCCC3)c(NC(=O)Nc3cc(C)cc(C)c3)cc21,AC50,[1],"39.8 µM [falling, single point]"
COc1ccc(Cl)cc1NC(=O)Cn1c(=O)n(Cc2ccco2)c(=O)c2cccnc21,AC50,[1],"31.6 µM [falling, single point]"
O=c1nc2sc3ccccc3n2c(=O)n1-c1ccc(Cl)c(Cl)c1,AC50,[1],"15.8 µM [falling, partial curve]"
O=C1c2[nH]nc(-c3ccccc3O)c2C(c2ccc(Cl)cc2)N1Cc1ccco1 (configuration not stated),AC50,[1],"20 µM [falling, partial curve]"
CCOC(=O)c1[nH]c2ccc(F)cc2c1NC(=O)CN1CCN(C/C=C/c2ccccc2)CC1,AC50,[1],"10 µM [falling, partial curve]"
CCOc1cccc2cc(C(=O)N3CCc4ccccc43)c(=O)oc12,AC50,[1],"2.51 µM [falling, full curve, poor fit]"
Cc1ccc(NC(=O)c2cccc(N(C)C)c2)cc1NC(=O)c1ccc(O)cc1,AC50,[1],"20 µM [falling, partial curve]"
COc1ccccc1NC(=O)Cn1c(=O)n(-c2cccc(C(C)=O)c2)c(=O)c2c3c(sc21)CN(C(C)=O)CC3,AC50,[1],"39.8 µM [falling, single point]"

# As a working copy, some entries already given.
smiles,measurement,setting,value
OCCCc1nc2ccccc2n1CCCCOc1ccccc1,AC50,[1],"3.16 µM [rising, partial curve]"
CCn1c(=O)n(CC)c2cc(N3CCCCC3)c(NC(=O)Nc3cc(C)cc(C)c3)cc21,AC50,[1],"39.8 µM [falling, single point]"
